Data from publication PMC7714070, “The role of the cytoskeletal proteins MreB and FtsZ in multicellular cyanobacteria” (FEBS Open Bio, 2020).
Results are given in words; binding and its absence hold for the method and conditions named. In cells and extracts the contact can be indirect.

Biological target: GFP-MreB from Anabaena sp. PCC 7120 (Anabaena sp. PCC 7120)
Experiment: co-IP; anti-GFP co-immunoprecipitation (µMACS GFP isolation kit) from cell-free lysates of cyanobacteria expressing gfp-mreB from PmreB, PBS with 1% NP-40 and protease inhibitor cocktail, 30 min on ice; western blot with anti-FtsZSubsV and anti-GFP; WT cells as control

B1: FtsZ of Anabaena sp. PCC 7120, endogenous (protein, UniProt P45482 1-428)
chain: MTLDNNQELTYRNSQSLGQPGFSLAVNSSNPFNHSGLNFGQNNDSKKISVENNRIGEIVPGRVANIKVIGVGGGGGNAVNRMIESDVSGVEFWSINTDAQALTLAGAPSRLQIGQKLTRGLGAGGNPAIGQKAAEESRDEIATALEGADLVFITAGMGGGTGTGAAPIVAEVAKEMGALTVGVVTRPFVFEGRRRTSQAEQGIEGLKSRVDTLIIIPNNKLLEVIPEQTPVQEAFRYADDVLRQGVQGISDIITIPGLVNVDFADVRAVMADAGSALMGIGVSSGKSRAREAAIAAISSPLLECSIEGARGVVFNITGGSDLTLHEVNAAAETIYEVVDPNANIIFGAVIDDRLQGEVRITVIATGFTGEIQAAPQQNAANARVVSAPPKRTPTQTPLTNSPAPTPEPKEKSGLDIPDFLQRRRPPKN
With B1 the binding was “no binding”.
